These are yes or no findings as the source states them, for the method shown. Some binding calls cover weakened binding; strength is not graded here.
Tests used:
[1] = molecular target: cynomolgus CD40 on B cells (cynomolgus) (UniProt G7PG38); assay: flow cytometry on B cells
[2] = molecular target: rhesus CD40 on B cells (rhesus) (UniProt F6SNI1); assay: flow cytometry on B cells
[3] = molecular target: cynomolgus CD40 on B cells (cynomolgus) (UniProt G7PG38); assay: refers to the cellular binding data above it
[4] = molecular target: rhesus CD40 on B cells (rhesus) (UniProt F6SNI1); assay: refers to the cellular binding data above it
[5] = molecular target: cynomolgus CD40 on B cells (cynomolgus) (UniProt G7PG38); assay: in vivo: single intravenous dose of CFZ533 (calculated 16.2, 18.5 and 20 mg/kg) in three cynomolgus monkeys; CD40 occupancy on peripheral B cells (free and total CD40) over time, flow cytometry [ii]

The chains behind the UniProt entries cited, without tags or fusion partners. Where a name states a change or a piece, a line headed by the entry shows the natural chain unless it says otherwise. A line that says so, or that is headed by a name, gives the form on record, which may keep a tag or linker.
cynomolgus CD40 on B cells (G7PG38, form named): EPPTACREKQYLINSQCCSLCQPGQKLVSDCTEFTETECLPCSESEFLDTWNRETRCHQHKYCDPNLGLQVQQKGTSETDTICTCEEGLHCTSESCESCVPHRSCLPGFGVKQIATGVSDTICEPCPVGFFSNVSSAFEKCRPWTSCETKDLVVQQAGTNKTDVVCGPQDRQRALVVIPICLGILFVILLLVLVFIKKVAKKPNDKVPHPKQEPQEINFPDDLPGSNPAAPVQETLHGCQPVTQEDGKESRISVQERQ
rhesus CD40 on B cells (F6SNI1, form named): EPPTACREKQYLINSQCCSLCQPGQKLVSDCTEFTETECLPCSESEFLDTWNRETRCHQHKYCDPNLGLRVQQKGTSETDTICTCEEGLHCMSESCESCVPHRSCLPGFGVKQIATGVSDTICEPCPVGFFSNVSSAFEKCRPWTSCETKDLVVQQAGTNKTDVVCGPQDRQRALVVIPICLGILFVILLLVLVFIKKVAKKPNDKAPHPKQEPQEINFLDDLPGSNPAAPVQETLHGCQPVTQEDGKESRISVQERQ

Measured: binding

B1: CFZ533 (antibody, human IgG1, kappa, N297A, V domains shown)
VH: QVQLVESGGGVVQPGRSLRLSCAASGFTFSSYGMHWVRQAPGKGLEWVAVISYEESNRYHADSVKGRFTISRDNSKITLYLQMNSLRTEDTAVYYCARDGGIAAPGPDYWGQGTLVTVSS
VL: DIVMTQSPLSLTVTPGEPASISCRSSQSLLYSNGYNYLDWYLQKPGQSPQVLISLGSNRASGVPDRFSGSGSGTDFTLKISRVEAEDVGVYYCMQARQTPFTFGPGTKVDIRR
binds: all assays above

— patent US20220098315A1 (Novartis, published 2022)
